Source: PubChem BioAssay AID1224830 (NIAID, 2016)
This is one part, drawn at random, of about 18,000 reagents. Over the whole deposit, about 2,900 (16%) were called active. 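Calls are made per well; low scores hint the gene aids the LPS response, high scores that it dampens it.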 Repeated entries: four replicate wells of each siRNA pool. No sequences are given here.

Aim: 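Regulators of TLR4 signalling towards TNF-alpha in macrophage-like cells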 (primary screen)
Cells: human THP-1 monocytic leukaemia cells, TNF dual-luciferase reporter clone, PMA-differentiated to macrophage-like cells
Knock-down reagent: siRNA pool against human genes, 50 nM
Timing: LPS for 4 h, given about 3 days after siRNA transfection
Challenge: bacterial LPS (TLR4 ligand), 10 ng/ml
Measured: 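Ratio of firefly to renilla light, scaled to the plate median and expressed as a robust z-score per replicate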
Reading the numbers: TNF reporter robust z-score: higher = stronger TNF reporter response to LPS
Rule for the call: 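Each well counts as active if its z-score is over 2.8 or under -1.5; controls are left without a call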

gene	PubChem SID	TNF reporter robust z-score	Call
ATP6AP1L	SID315460993	0.48	inactive
ATP6AP1L	SID315460993	1.1	inactive
ATP6AP1L	SID315460993	0.35	inactive
ATP6AP1L	SID315460993	0.17	inactive
PLSCR4	SID315458248	-0.53	inactive
PLSCR4	SID315458248	0.38	inactive
PLSCR4	SID315458248	-0.75	inactive
PLSCR4	SID315458248	-1.03	inactive
DMWD	SID315448334	0.89	inactive
DMWD	SID315448334	1.35	inactive
DMWD	SID315448334	1.92	inactive
DMWD	SID315448334	1.71	inactive
CEMIP2	SID315455400	-0.64	inactive
CEMIP2	SID315455400	0.2	inactive
CEMIP2	SID315455400	-0.8	inactive
CEMIP2	SID315455400	-0.77	inactive
PCNX2	SID315459613	-0.47	inactive
PCNX2	SID315459613	-0.36	inactive
PCNX2	SID315459613	-0.21	inactive
PCNX2	SID315459613	0	inactive
REDIC1	SID315463677	-1.06	inactive
REDIC1	SID315463677	-0.69	inactive
REDIC1	SID315463677	-0.52	inactive
REDIC1	SID315463677	-0.46	inactive
GAREM1	SID315458976	0.95	inactive
GAREM1	SID315458976	1.47	inactive
GAREM1	SID315458976	0.47	inactive
GAREM1	SID315458976	0.04	inactive
HECW2	SID315458434	-0.74	inactive
HECW2	SID315458434	-0.9	inactive
HECW2	SID315458434	-0.32	inactive
HECW2	SID315458434	-0.58	inactive
IQGAP2	SID315454363	0.09	inactive
IQGAP2	SID315454363	0.76	inactive
IQGAP2	SID315454363	0.51	inactive
IQGAP2	SID315454363	0.44	inactive
DSCR9	SID315463556	0.04	inactive
DSCR9	SID315463556	1.32	inactive
DSCR9	SID315463556	1.38	inactive
DSCR9	SID315463556	0.25	inactive
SETD7	SID315459831	-0.58	inactive
SETD7	SID315459831	1.25	inactive
SETD7	SID315459831	-1	inactive
SETD7	SID315459831	0.22	inactive

In a second layout: results already given.
| gene | PubChem SID | TNF reporter robust z-score | Call |
| --- | --- | --- | --- |
| PLSCR4 | SID315458248 | -1.03 | inactive |
| DMWD | SID315448334 | 0.89 | inactive |
| DMWD | SID315448334 | 1.35 | inactive |
| DMWD | SID315448334 | 1.92 | inactive |
| DMWD | SID315448334 | 1.71 | inactive |
| CEMIP2 | SID315455400 | -0.64 | inactive |
| CEMIP2 | SID315455400 | 0.2 | inactive |
| CEMIP2 | SID315455400 | -0.8 | inactive |
| CEMIP2 | SID315455400 | -0.77 | inactive |
| PCNX2 | SID315459613 | -0.47 | inactive |
| PCNX2 | SID315459613 | -0.36 | inactive |

Next results:
gene	PubChem SID	TNF reporter robust z-score	Call
STOML2	SID315456309	0.33	inactive
STOML2	SID315456309	1.03	inactive
STOML2	SID315456309	-0.09	inactive
STOML2	SID315456309	0.61	inactive
ZNF691	SID315456430	0.14	inactive
ZNF691	SID315456430	0.22	inactive
ZNF691	SID315456430	0.2	inactive
ZNF691	SID315456430	1.11	inactive
GPRC5A	SID315453003	-0.44	inactive
GPRC5A	SID315453003	0.89	inactive
GPRC5A	SID315453003	0.13	inactive
GPRC5A	SID315453003	-0.59	inactive
PCSK1	SID315450459	-0.82	inactive
PCSK1	SID315450459	-0.12	inactive
PCSK1	SID315450459	-0.06	inactive
PCSK1	SID315450459	1.31	inactive
GPSM2	SID315456203	-0.16	inactive
GPSM2	SID315456203	0.12	inactive
GPSM2	SID315456203	-0.08	inactive
GPSM2	SID315456203	-0.24	inactive
LMCD1	SID315456272	-0.57	inactive
LMCD1	SID315456272	-0.63	inactive
LMCD1	SID315456272	-1.48	inactive
LMCD1	SID315456272	-0.89	inactive
OR2U1P	SID315465126	-0.35	inactive
OR2U1P	SID315465126	-0.12	inactive
OR2U1P	SID315465126	-0.13	inactive
OR2U1P	SID315465126	-0.34	inactive
CLIC3	SID315452979	1.86	inactive
CLIC3	SID315452979	1.2	inactive
CLIC3	SID315452979	0.97	inactive
CLIC3	SID315452979	2.35	inactive
